Drawing on PubChem BioAssay AID445 (National Center for Advancing Translational Sciences (NCATS), 2006), this text covers AC50 for 66 molecules.

“And” between values parts separate entries of the source, which are not always exact repeats. Identical values can stand only once. The list shows a part of the results. Further columns of the screen follow, without active or inactive calls. Most of these compounds were active or inconclusive in the main read-out, so they are no random draw. Potencies come from curve fits of mixed quality, noted in brackets.

The nature of this assay: IkB Signaling. To be noted: ABC-DLBCL IkBa-CBG/CBR dual luciferase ratio (green luciferase fused to IkBa over red control in OCI-Ly3 lymphoma cells), 4 h. Put shortly:
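Luminescence ratio of IκBα-fused green versus native red beetle luciferase in OCI-Ly3 cells, 4 h post-doxycycline with compound; red signal alone, scaled from basal (0%) to zero light (-100%), flagged nonspecific or cytotoxic effects.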

Setting [1] is: measured here: IkB-luc green channel.
Where [2] appears, read: measured here: control luc red channel.

As usually defined, the AC50 is the midpoint of the concentration-response curve, whichever way the signal moves. On to `CCSc1cc(C2C(C#N)=C(N)Oc3n[nH]c(C)c32)c(C)o1` (configuration not stated), for which the AC50 under setting [1] was 25.1 µM [rising, partial curve].
The same measure, in the same setting: in the case of `O=C(O)CN1CCN(CC(=O)O)CC(=O)[O][Hg][O]C(=O)C1` it was 5.01 µM [rising, partial curve].
For the molecule `Cc1c(C(c2ccc(F)cc2)c2c(O)c3ccccc3oc2=O)c(=O)n(-c2ccccc2)n1C` (configuration not stated), the AC50 under setting [2] was 15.8 µM [falling, single point].
For the molecule `O=C1CC(c2c(F)cccc2Cl)c2c(c3ccccc3oc2=O)O1` (configuration not stated), the AC50 under setting [2] is 0.00631 µM [falling, full curve, poor fit].
The same measure, in the same setting: the result for `COC(=O)CSC1=NP(=S)(SCC(=O)OC)N2CCCC2=C1C#N` (configuration not stated) reads 12.6 µM [falling, partial curve].
For `O=S1(=O)N(CCN2CC=C(c3c[nH]c4cc(F)ccc34)CC2)c2cccc3c2N1CCC3`, the AC50 under setting [1] was 10 µM [rising, partial curve].
On the same count and under the same terms, in the case of `N#CC(C#N)=Cc1ccc([N+](=O)[O-])c(O)c1` it was 5.01 µM [rising, partial curve, poor fit]; in that of `O=C1CC(c2ccc(Br)cc2)c2c(c3ccccc3oc2=O)O1` (configuration not stated), 6.31 µM [rising, single point].
For `O=C(CCCN1CCC2(CC1)C(=O)N(Cc1cccc(F)c1)CN2c1ccccc1)c1ccc(F)cc1`, under setting [2], the AC50 is 39.8 µM [falling, partial curve].
On to `O=C1CN(C(=O)CN2CCCCC2)C(c2ccccc2)c2cc(Br)ccc2N1` (configuration not stated), for which the concentration at half-maximal activity (AC50) under setting [2] is 20 µM [falling, single point].
Still for that read-out and setting: in the case of `CN1[C@@H]2CC[C@H]1CC(OC(c1ccc(F)cc1)c1ccc(F)cc1)C2` (some centres not stated) it was 31.6 µM [falling, partial curve]; in that of `O=C(Nc1ccon1)c1cccn(Cc2cccc(Cl)c2)c1=O`, 12.6 µM [falling, partial curve, poor fit].
On the same count and under the same terms, the result for `Cc1oc(-c2ccc(Cl)cc2)nc1CN1C(=O)CN=C(c2ccccc2)c2ccccc21` reads 20 µM [falling, single point].
The same measure, in the same setting: the result for `Cc1cccc(NC(=O)Cn2cc(C(=O)c3ccccc3)c3ccccc32)c1C` reads 3.98 µM [falling, full curve]; that for `O=c1[nH]c2ccccc2c(=O)n1-c1ccc(Cl)c(Cl)c1`, 1.58 µM [falling, full curve].
For `Nc1ccccc1C(=O)OCCc1ccccc1`, the AC50 reads like this: under setting [1], 7.94 µM [rising, partial curve]; under setting [2], 12.6 µM [falling, partial curve].
As to `CN(C)c1ccc(N)cc1`, under setting [2], the concentration at half-maximal activity (AC50) is 2.51 µM [falling, full curve].
Same read-out and setting: the result for `O=C1C(Cl)=C(Cl)C(=O)C(Cl)=C1Cl` reads 3.98 µM [falling, full curve]; that for `CCCCCC[C@H]1C(=O)O[C@H](C)[C@H](NC(=O)c2cccc(NC=O)c2O)C(=O)O[C@@H](C)[C@H]1OC(=O)CC(C)C`, 5.01 µM [falling, partial curve].
Same read-out and setting: the result for `O=C1C2CCN(CC2)C1(CO)CO` reads 31.6 µM [falling, partial curve].
For `C[C@]12Cc3cn4c(nc3C=C1CC[C@H]1[C@@H]2CC[C@@]2(C)[C@H]1CC[C@@]2(O)C#N)nc1ccccc14`, the AC50 was 31.6 µM [falling, partial curve, poor fit] under setting [1] and 15.8 µM [falling, full curve, poor fit] under setting [2].
With `COc1ccc(CN2CCN(C(=O)COc3cccc(C)c3)CC2)c(OC)c1`, the AC50 under setting [1] was 0.2 µM [rising, full curve, poor fit].
For the molecule `O=C(Nc1cc(C(F)(F)F)cc(C(F)(F)F)c1)c1cccn(Cc2ccccc2Cl)c1=O`, the AC50 under setting [2] was 1 µM [rising, full curve].
Same read-out and setting: in the case of `CN[C@@H]1C[C@H](c2ccc(Cl)c(Cl)c2)c2ccccc21` it was 39.8 µM [falling, partial curve]; in that of `N#C/C=C/C#N`, 15.8 µM [falling, partial curve, poor fit]; in that of `O=C1C2(Cl)C3(Cl)C4(Cl)C(Cl)(Cl)C5(Cl)C3(Cl)C1(Cl)C5(Cl)C24Cl` (configuration not stated), 39.8 µM [falling, partial curve, poor fit] and 39.8 µM [falling, partial curve].
On the same count and under the same terms, in the case of `C[C@@]12CC[C@H](O)C[C@@H]1CC[C@H]1[C@@H]2C[C@@H](O)[C@]2(C)[C@@H](C3=CC(=O)OC3)CC[C@]12O` it was 10 µM [falling, partial curve].
Same read-out and setting: in the case of `N#C/C(=C\c1ccc(O)c(O)c1)C(N)=S` it was 20 µM [falling, partial curve]; in that of `Cc1ccc(NC(=O)c2cccn(Cc3ccccc3C)c2=O)c(C)c1`, 1 µM [falling, partial curve, poor fit]; in that of `CCC(C)NC(=O)c1c(N)n(CC2CCCO2)c2nc3ccccc3nc12` (configuration not stated), 15.8 µM [falling, partial curve].
`CC(C)OCCCNC(=O)c1c(N)n(Cc2cccs2)c2nc3ccccc3nc12`: under setting [2], the half-maximal activity concentration (AC50) is 15.8 µM [falling, partial curve].
On the same count and under the same terms, in the case of `COc1cccc(-n2c(/C=C/c3ccccc3O)nc3ccccc3c2=O)c1` it was 0.631 µM [falling, full curve].
The same measure, in the same setting: in the case of `Nc1c(C(=O)Nc2ccc(Cl)c(C(F)(F)F)c2)sc2nc3c(cc12)N1CCC3CC1` it was 12.6 µM [falling, partial curve]; in that of `CN(C)CCc1nc2ccccc2c(=O)n1-c1ccccc1`, 12.6 µM [falling, partial curve].
The same measure, in the same setting: in the case of `CCCCCc1nc2ccccc2c(=O)n1-c1ccc(C)cc1` it was 31.6 µM [falling, partial curve].
In the case of `Cc1ccccc1-n1nc(C)c2c1NC(=O)CSC2c1ccc(N(C)C)cc1` (configuration not stated), the AC50 under setting [2] is 39.8 µM [falling, single point].
Still for that read-out and setting: the result for `Cc1ccc(NC(=O)CN2C(=O)CN=C(c3ccccc3)c3ccccc32)cc1` reads 20 µM [falling, partial curve, poor fit]; that for `Cc1ccc(CN2C(=O)c3ccccc3Sc3ccc(C(=O)N4CCC5(CC4)OCCO5)cc32)cc1`, 25.1 µM [falling, partial curve]; that for `CC(C)(C)c1nc(N2CCN(C(=O)c3ccco3)CC2)c2nnn(Cc3ccccc3Cl)c2n1`, 31.6 µM [falling, partial curve].
On the same count and under the same terms, in the case of `O=C1NC(=O)[C@]2(Cc3ccccc3N3CCN(c4ccccc4)CC32)C(=O)N1Cc1ccccc1` (some centres not stated) it was 0.794 µM [falling, full curve].
With `COc1cccc(OC)c1C1=NCC(=O)Nc2c1oc1ccc(Br)cc21`, the AC50 is, setting by setting: under setting [1], 2 µM [rising, full curve]; under setting [2], 0.631 µM [rising, full curve].
Consider `N[C@@H](Cc1c[nH]c2ccccc12)c1nnc(SCc2ccc(F)cc2)o1`, for which the AC50 under setting [2] is 25.1 µM [falling, partial curve].
`O=C(O)c1cc[c]([Hg][Cl])cc1`: under setting [1], the AC50 was 39.8 µM [rising, partial curve].
On to `CCCOc1ccc(C2SCC(=O)Nc3c2c(C)nn3-c2cccc(C)c2)cc1OC` (configuration not stated), for which the half-maximal activity concentration (AC50) under setting [2] is 12.6 µM [falling, partial curve].
On the same count and under the same terms, in the case of `COc1cccc(NC(=O)Cn2cc(C(=O)c3ccccc3)c3ccccc32)c1` it was 20 µM [falling, partial curve].
Still for that read-out and setting: the result for `CCN(CC)CCSc1nc2ccccc2c(=O)n1-c1ccc(Cl)cc1` reads 15.8 µM [falling, partial curve].
Same read-out and setting: in the case of `Cc1cccc(Cn2cccc(C(=O)Nc3ccc4c(c3)OCCO4)c2=O)c1` it was 39.8 µM [falling, partial curve]; in that of `Cc1cccc(-c2nc(CN3C(=O)CN=C(c4ccccc4)c4ccccc43)c(C)o2)c1`, 20 µM [falling, partial curve]; in that of `COc1ccc(C(c2ccc(OC)cc2)C(Cl)(Cl)Cl)cc1`, 2.51 µM [falling, full curve, poor fit].
Regarding `CC1CCCCN1CC(=O)c1ccc2cc[nH]c2c1` (configuration not stated), the half-maximal activity concentration (AC50) under setting [2] was 10 µM [falling, partial curve].
On the same count and under the same terms, in the case of `C[C@@H](Cc1cccc(C(F)(F)F)c1)NCCCc1ccccc1` it was 31.6 µM [falling, partial curve, poor fit]; in that of `Cc1ccc(NC(=O)Cn2cc(C(=O)c3ccccc3)c3ccccc32)cc1`, 3.98 µM [falling, partial curve]; in that of `Cn1c(=O)n(C)c2cc(CNCCc3ccc(F)cc3)ccc21`, 12.6 µM [rising, partial curve].
With `Cc1ccc2nc(NC(=O)c3cccn(Cc4ccc(Cl)cc4)c3=O)sc2c1`, the half-maximal activity concentration (AC50) under setting [2] is 15.8 µM [falling, partial curve].
The same measure, in the same setting: in the case of `Cc1nn(-c2ccccc2)c(Cl)c1C1C(C#N)=C(N)Oc2c1c(=O)oc1ccccc21` (configuration not stated) it was 15.8 µM [falling, partial curve].
With `CCn1cnc2c(Nc3cccc(Cl)c3)nc(N[C@@H]3CCCC[C@H]3N)nc21`, the AC50 was 2.51 µM [falling, full curve] under setting [1] and 3.16 µM [falling, full curve] under setting [2].
Regarding `COc1ccccc1OCCCn1cc(C(=O)c2ccco2)c2ccccc21`, the AC50 under setting [2] is 39.8 µM [falling, single point].
On the same count and under the same terms, the result for `COC(=O)c1c(N)n(Cc2ccc(OC)cc2)c2nc3ccccc3nc12` reads 31.6 µM [falling, single point]; that for `CCCn1c(C)c(C(=O)c2cccc3ccccc23)c2ccccc21`, 31.6 µM [falling, partial curve, poor fit]; that for `COc1ccc(C[C@@H]2NC[C@H](O)[C@@H]2OC(C)=O)cc1`, 0.158 µM [falling, full curve].
On the same count and under the same terms, in the case of `COc1ccc(NC(=O)c2sc3nc4c(cc3c2N)N2CCC4CC2)cc1OC` it was 39.8 µM [falling, single point]; in that of `Cc1cccc(CN2CC=C(c3noc(CCC(=O)Nc4ccc(C)c(F)c4)n3)CC2)c1`, 39.8 µM [falling, partial curve]; in that of `C=C[C@@H]1CN2CC[C@@H]1C[C@H]2[C@H](O)c1ccnc2ccccc12`, 0.316 µM [rising, single point].
As to `COC[C@H]1OC(=O)c2coc3c2[C@@]1(C)C1=C(C3=O)[C@H]2CCC(=O)[C@@]2(C)C[C@H]1OC(C)=O`, the AC50 under setting [1] was 39.8 µM [rising, partial curve] and the half-maximal activity concentration (AC50) under setting [2] was 10 µM [rising, partial curve].
Consider `CC(C)(C)c1cc(O)ccc1O`, for which the concentration at half-maximal activity (AC50) under setting [1] was 15.8 µM [rising, full curve] and the concentration at half-maximal activity (AC50) under setting [2] is 15.8 µM [falling, partial curve].
`N[C@@H](Cc1c[nH]c2ccccc12)c1nnc(SCc2ccc(Cl)cc2)o1`: the half-maximal activity concentration (AC50) under setting [2] is 15.8 µM [falling, partial curve].
